Results are given in words; binding and its absence hold for the method and conditions named. In cells and extracts the contact can be indirect. Binding can be weak; no strength is given.
Target: T1, nuclear factor erythroid 2-related factor 2 (NRF2) (human (endogenous in SUM159PT)) (UniProt Q16236)
T1 sequence: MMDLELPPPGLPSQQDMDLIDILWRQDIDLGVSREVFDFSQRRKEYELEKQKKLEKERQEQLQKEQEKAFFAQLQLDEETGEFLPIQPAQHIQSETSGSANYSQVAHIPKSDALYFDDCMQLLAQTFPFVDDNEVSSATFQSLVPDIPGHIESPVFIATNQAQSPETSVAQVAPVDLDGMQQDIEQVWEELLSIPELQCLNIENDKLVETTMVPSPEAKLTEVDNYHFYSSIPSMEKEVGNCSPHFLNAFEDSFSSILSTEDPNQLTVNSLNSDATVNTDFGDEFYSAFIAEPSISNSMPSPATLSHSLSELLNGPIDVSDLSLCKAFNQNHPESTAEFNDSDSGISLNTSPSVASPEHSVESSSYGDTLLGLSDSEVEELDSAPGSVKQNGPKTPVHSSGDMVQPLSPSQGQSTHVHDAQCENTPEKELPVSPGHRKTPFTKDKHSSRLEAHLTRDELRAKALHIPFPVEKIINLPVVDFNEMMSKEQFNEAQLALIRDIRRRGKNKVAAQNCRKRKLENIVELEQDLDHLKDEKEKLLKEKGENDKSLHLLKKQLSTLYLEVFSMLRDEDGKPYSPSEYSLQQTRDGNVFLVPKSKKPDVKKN
Test: co-IP; endogenous proteins of SUM159PT cell lysates (wild type or EGFR(Y1068F) cells; with and without CAP treatment or p38 siRNA); target antibody overnight at 4°C, protein A and protein G agarose, washed with lysis buffer, western blot

Substance: glutathione peroxidase 4 (GPX4) (human (endogenous in SUM159PT)) (enzyme)
- binding: binds

Source: publication PMC11705651
